We go through 3 molecules from patent publication US9328334B2, “Luciferase derived from lucidina accensa” (OLYMPUS CORPORATION, priority 2011, dated 2016).

Data set [1] can be described thus: Measurement of light emission spectra of purified luciferase under various pH environments. It counts as biochemical. The procedure:
With use of LumiFlSpectroCapture (manufactured by ATTO Corporation) as an apparatus for measurement, to a solution of 0.1 M citric acid/0.1 M Na2HPO4 buffer (pH 5.5 to 8.0) containing 1 mM of D-luciferin, 2 mM of ATP and 4 mM of MgCl2 the purified enzyme was added at a final concentration of 1 μg/mL, and after 15 seconds of addition of the enzyme luminescence spectra was measured. The measurement results were illustrated in FIG. 1.
After that, each of thus-prepared genes (SEQ ID NOs: 38 and 39) was introduced into pRSET-B vector according to the same method as the Example 2. This vector was transformed to E. coli JM109 (DE3) strain to express the mutant luciferase. Subsequently, the mutant luciferase was purified from E. coli. In addition, under various pH environments, the light emission spectrum was measured according to the same method as the Example 2 from a light emitting reaction catalyzed by the mutant luciferase.

For data set [2], the system named is E. coli JM109 (DE3) strain. Briefly: Temperature dependency of luminescence intensity: E. coli colonies heat treated at 55° C., CCD image (Example 7). It counts as cell-based, Escherichia coli. Particulars: 55° C. for 1 hour, 0.5 mM D-luciferin spray. The procedure: Each of the wild type luciferase gene and two kinds of the mutant gene obtained in the Example 6 was introduced into pRSET-B vector and transformed to E. coli JM109 (DE3) strain to form a colony. Thus-obtained colony was cultured and applied on a LB agar medium to form again the colony for 24 hours. After that, it was subjected to the heat treatment at 55° C. for 1 hour and kept at room temperature for 1 hour. It was then sprayed with a liquid containing 0.5 mM D-luciferin and a photographic image thereof was taken for 1 min by using a CCD camera (trade name: DP70, manufactured by Olympus Corporation).

“Also recorded” adds a separate entry of the source.

B1: wild type luciferase: wild type luciferase obtained from Lucidina accensa, amino acid sequence SEQ ID NO: 1 (protein, listed as Lucidina accensa)
chain: MEEDKNILRGPAPFYPLEDGTAGEQLHRAMKRYALIPGTIAFTDAHAGVNITYSEYFEMACRLAESLKRYGLGLQHRIVVCSENSLQFFMPVVGALFIGVGVAPANDIYNERELLNSMTISQPTLVFCSRKGLQKILNVQKKLPVIQKIIILDTKEDYMGFQSMYSFVDSQLPVGFNEYDYVPDSFDRDQATALIMNSSGSTGLPKGVELNHTSVCVRFSHCRDPVYGNQIIPDTAILSVIPFHHGFGMFTTLGYLICGFRVVLMYRFEEELFLRSLQDYKIQSALLVPTLFSFFAKSTLIDKYDLSNLHEIASGGAPLAKEVGEAVAKRFNLRGIRQGYGLTETTSAVIITPEGDDKPGAVGKVVPFFSAKVVDLDTGKTLGVNQRGELCLKGPMIMKGYVNNPEATNALIDKDGWLHSGDISYWDEDGHFFIVDRLKSLIKYKGYQVPPAELESILLQHPFIFDAGVAGIPDDEAGELPAAVVVLEEGKTMTEKEIMDYVAGQVTTAKRLRGGVVFVDEVPKGLTGKIDARKIREILVKVKKTKSKL
B1: the maximum luminescent wavelength result in data set [1] (pH 5.5) is reported as “approximately 616 nm”; in data set [1] (pH 6.0) it was “approximately 614 nm”. Also, in data set [2], the “color of light emission in color photographic image” value (“color of light emission” for short) is on record as “yellow color with a hint of orange; also recorded: yellow color with a hint or orange”.

B2: mutant luciferase (F294Y, V323L, and E354V): L. accensa luciferase mutant with F294Y, V323L and E354V, amino acid sequence SEQ ID NO: 34 (protein, listed as Lucidina accensa)
chain: MEEDKNILRGPAPFYPLEDGTAGEQLHRAMKRYALIPGTIAFTDAHAGVNITYSEYFEMACRLAESLKRYGLGLQHRIVVCSENSLQFFMPVVGALFIGVGVAPANDIYNERELLNSMTISQPTLVFCSRKGLQKILNVQKKLPVIQKIIILDTKEDYMGFQSMYSFVDSQLPVGFNEYDYVPDSFDRDQATALIMNSSGSTGLPKGVELNHTSVCVRFSHCRDPVYGNQIIPDTAILSVIPFHHGFGMFTTLGYLICGFRVVLMYRFEEELFLRSLQDYKIQSALLVPTLFSYFAKSTLIDKYDLSNLHEIASGGAPLAKELGEAVAKRFNLRGIRQGYGLTETTSAVIITPVGDDKPGAVGKVVPFFSAKVVDLDTGKTLGVNQRGELCLKGPMIMKGYVNNPEATNALIDKDGWLHSGDISYWDEDGHFFIVDRLKSLIKYKGYQVPPAELESILLQHPFIFDAGVAGIPDDEAGELPAAVVVLEEGKTMTEKEIMDYVAGQVTTAKRLRGGVVFVDEVPKGLTGKIDARKIREILVKVKKTKSKL
With B2, the maximum luminescent wavelength in data set [1] (pH 7.4) was ~615 nm. In data set [2], the “color of light emission” value is on record as “red color”.

B3: mutant luciferase (E322W): L. accensa luciferase mutant with E322W, amino acid sequence SEQ ID NO: 36 (protein, listed as Lucidina accensa)
chain: MEEDKNILRGPAPFYPLEDGTAGEQLHRAMKRYALIPGTIAFTDAHAGVNITYSEYFEMACRLAESLKRYGLGLQHRIVVCSENSLQFFMPVVGALFIGVGVAPANDIYNERELLNSMTISQPTLVFCSRKGLQKILNVQKKLPVIQKIIILDTKEDYMGFQSMYSFVDSQLPVGFNEYDYVPDSFDRDQATALIMNSSGSTGLPKGVELNHTSVCVRFSHCRDPVYGNQIIPDTAILSVIPFHHGFGMFTTLGYLICGFRVVLMYRFEEELFLRSLQDYKIQSALLVPTLFSFFAKSTLIDKYDLSNLHEIASGGAPLAKWVGEAVAKRFNLRGIRQGYGLTETTSAVIITPEGDDKPGAVGKVVPFFSAKVVDLDTGKTLGVNQRGELCLKGPMIMKGYVNNPEATNALIDKDGWLHSGDISYWDEDGHFFIVDRLKSLIKYKGYQVPPAELESILLQHPFIFDAGVAGIPDDEAGELPAAVVVLEEGKTMTEKEIMDYVAGQVTTAKRLRGGVVFVDEVPKGLTGKIDARKIREILVKVKKTKSKL
Take B3: in data set [1] (pH 8.0, 1 mM D-luciferin, 2 mM ATP, 4 mM MgCl2, enzyme 1 μg/mL), the maximum luminescent wavelength was ~557 nm. In addition, the “color of light emission” value in data set [2] is on record as “yellowish green color”.
